For 34 targets, log2 fold change results are on record in the supplement of paper PMC10849652.

Sequences of proteins named here, by UniProt entry; tags and fusion partners are left off. A change or cut given only in a name is not applied to a line headed by its entry.
UniProt Q9Y2F5: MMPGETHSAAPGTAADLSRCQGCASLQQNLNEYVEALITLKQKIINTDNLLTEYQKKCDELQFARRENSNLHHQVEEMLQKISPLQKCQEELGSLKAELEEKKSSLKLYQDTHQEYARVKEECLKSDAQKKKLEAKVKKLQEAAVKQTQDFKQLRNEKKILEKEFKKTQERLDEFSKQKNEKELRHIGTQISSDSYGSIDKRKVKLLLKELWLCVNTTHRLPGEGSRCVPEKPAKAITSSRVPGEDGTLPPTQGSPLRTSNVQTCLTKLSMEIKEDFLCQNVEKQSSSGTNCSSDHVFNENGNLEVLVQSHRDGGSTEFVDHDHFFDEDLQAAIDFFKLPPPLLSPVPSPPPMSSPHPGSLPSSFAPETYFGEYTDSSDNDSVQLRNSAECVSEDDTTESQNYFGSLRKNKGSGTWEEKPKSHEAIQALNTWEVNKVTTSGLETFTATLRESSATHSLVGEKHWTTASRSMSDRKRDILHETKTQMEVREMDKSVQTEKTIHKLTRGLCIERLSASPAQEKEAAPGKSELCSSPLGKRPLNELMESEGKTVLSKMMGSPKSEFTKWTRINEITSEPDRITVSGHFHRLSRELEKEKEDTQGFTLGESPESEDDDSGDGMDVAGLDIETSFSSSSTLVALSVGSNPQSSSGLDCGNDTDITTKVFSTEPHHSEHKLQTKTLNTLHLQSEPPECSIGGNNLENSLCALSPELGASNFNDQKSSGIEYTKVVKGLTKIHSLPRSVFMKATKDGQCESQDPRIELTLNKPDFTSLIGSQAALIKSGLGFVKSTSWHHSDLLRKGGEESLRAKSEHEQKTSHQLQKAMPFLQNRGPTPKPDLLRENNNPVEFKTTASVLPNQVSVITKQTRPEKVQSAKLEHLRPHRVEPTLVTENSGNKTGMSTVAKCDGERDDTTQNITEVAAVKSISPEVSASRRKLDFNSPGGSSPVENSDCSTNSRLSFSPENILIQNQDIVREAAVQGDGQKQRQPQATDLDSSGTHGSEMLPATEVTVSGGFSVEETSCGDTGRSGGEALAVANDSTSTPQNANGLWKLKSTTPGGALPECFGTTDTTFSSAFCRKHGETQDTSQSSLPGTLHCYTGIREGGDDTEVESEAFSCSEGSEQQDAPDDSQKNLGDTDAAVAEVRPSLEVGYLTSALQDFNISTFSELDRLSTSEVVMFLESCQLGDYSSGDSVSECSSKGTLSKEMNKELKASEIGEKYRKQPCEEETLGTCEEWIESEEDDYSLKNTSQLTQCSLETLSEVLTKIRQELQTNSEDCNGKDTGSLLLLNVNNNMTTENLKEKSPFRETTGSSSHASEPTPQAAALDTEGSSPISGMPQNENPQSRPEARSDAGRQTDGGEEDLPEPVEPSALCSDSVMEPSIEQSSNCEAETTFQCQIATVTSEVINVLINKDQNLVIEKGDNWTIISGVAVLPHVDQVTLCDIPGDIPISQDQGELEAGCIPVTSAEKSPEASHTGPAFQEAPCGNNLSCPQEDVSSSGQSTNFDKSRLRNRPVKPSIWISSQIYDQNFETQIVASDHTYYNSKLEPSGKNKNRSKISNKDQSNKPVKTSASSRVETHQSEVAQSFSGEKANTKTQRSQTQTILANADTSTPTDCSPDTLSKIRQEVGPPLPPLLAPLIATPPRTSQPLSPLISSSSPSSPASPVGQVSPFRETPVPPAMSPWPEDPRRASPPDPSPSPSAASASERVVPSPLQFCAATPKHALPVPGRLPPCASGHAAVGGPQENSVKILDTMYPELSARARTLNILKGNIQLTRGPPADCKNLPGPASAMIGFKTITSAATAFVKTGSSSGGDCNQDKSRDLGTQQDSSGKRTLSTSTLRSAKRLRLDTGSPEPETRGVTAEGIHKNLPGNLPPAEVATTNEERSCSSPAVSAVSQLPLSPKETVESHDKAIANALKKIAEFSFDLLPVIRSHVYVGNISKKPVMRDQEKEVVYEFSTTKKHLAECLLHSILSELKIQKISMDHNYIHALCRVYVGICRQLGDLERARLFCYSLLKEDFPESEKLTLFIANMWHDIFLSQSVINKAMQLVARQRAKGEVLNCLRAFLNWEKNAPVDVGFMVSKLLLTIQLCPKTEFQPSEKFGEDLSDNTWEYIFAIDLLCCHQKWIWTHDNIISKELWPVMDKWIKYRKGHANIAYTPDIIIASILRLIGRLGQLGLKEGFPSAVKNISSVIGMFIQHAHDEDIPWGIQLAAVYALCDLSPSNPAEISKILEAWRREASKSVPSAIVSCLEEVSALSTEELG
UniProt Q8WYA0: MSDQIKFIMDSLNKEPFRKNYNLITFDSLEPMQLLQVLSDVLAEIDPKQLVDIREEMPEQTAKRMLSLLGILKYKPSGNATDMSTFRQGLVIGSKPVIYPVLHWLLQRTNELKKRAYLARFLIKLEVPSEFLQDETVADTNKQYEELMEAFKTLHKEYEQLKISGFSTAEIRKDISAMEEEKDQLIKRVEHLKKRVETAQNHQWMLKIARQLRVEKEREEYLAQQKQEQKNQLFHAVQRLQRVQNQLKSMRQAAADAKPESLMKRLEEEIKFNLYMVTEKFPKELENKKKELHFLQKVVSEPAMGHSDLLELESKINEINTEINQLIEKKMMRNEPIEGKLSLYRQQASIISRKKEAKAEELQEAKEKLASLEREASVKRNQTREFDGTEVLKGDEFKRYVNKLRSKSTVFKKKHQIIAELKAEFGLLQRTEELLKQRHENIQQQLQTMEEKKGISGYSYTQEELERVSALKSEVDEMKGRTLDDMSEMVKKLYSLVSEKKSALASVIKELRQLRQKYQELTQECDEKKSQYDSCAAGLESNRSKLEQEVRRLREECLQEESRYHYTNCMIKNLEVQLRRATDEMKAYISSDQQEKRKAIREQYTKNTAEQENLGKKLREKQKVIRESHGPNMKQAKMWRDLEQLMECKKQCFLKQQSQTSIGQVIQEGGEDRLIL
UniProt P50213: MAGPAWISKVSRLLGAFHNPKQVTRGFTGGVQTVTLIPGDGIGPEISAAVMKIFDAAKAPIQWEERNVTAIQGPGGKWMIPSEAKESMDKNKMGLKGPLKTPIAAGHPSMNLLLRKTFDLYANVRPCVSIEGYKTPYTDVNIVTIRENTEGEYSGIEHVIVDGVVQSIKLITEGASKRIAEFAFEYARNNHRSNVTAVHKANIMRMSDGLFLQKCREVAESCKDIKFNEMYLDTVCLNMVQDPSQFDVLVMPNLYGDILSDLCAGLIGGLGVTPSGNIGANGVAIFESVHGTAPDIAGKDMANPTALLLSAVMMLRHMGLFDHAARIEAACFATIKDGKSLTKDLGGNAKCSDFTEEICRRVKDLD
UniProt Q12906, whole entry, looked up: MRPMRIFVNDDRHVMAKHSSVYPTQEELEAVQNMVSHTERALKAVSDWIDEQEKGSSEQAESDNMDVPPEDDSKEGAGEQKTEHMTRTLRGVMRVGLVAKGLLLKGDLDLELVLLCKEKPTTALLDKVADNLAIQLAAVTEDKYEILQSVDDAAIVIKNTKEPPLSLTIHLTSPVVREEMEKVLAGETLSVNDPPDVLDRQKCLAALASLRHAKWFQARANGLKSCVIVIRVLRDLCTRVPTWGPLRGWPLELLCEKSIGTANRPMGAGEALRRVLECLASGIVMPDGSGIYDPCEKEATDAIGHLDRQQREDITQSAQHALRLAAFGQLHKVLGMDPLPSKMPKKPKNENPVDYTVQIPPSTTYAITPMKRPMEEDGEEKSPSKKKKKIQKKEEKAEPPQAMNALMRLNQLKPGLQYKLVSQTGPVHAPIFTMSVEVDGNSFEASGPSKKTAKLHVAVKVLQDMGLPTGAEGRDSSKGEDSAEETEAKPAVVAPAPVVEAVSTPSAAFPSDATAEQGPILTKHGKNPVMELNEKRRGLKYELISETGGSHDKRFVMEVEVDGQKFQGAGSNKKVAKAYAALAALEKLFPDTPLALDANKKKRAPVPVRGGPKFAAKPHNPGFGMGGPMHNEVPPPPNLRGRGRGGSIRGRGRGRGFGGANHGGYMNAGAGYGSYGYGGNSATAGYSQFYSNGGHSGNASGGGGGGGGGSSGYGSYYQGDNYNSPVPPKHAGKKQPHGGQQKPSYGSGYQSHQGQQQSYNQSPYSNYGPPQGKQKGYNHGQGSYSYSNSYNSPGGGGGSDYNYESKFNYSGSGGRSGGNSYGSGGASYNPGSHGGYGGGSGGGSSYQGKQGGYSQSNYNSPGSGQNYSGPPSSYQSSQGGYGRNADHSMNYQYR
UniProt Q96F46, whole entry, looked up: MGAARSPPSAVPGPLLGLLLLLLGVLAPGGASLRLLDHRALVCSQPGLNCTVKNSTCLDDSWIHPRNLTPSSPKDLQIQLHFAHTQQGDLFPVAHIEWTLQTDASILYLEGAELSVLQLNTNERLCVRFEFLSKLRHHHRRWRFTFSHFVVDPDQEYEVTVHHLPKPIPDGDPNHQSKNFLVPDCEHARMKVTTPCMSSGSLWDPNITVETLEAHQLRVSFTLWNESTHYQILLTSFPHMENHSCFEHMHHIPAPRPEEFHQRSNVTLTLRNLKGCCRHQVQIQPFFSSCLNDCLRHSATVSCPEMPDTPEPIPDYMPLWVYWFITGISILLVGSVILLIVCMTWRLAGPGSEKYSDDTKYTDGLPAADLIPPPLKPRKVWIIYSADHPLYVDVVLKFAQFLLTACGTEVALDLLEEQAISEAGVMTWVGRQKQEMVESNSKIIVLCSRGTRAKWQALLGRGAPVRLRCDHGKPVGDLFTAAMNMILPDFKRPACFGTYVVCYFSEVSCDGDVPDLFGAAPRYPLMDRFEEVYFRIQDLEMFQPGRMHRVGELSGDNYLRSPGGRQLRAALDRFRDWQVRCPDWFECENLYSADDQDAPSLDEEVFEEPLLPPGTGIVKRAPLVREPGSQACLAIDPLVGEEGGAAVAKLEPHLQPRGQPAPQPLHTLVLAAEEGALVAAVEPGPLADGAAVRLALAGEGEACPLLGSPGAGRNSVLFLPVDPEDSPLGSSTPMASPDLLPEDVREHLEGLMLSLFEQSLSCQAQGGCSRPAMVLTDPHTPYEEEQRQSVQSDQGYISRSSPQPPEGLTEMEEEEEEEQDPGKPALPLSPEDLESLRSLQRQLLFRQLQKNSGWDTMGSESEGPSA
UniProt Q14773: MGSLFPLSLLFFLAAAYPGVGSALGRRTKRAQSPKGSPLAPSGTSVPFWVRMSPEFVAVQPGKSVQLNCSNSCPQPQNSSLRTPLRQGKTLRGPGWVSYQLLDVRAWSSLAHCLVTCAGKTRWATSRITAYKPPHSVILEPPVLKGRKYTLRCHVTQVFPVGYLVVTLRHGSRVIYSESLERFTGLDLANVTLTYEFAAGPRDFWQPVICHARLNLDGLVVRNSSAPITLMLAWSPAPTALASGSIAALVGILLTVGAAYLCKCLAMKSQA
UniProt Q9NRR6: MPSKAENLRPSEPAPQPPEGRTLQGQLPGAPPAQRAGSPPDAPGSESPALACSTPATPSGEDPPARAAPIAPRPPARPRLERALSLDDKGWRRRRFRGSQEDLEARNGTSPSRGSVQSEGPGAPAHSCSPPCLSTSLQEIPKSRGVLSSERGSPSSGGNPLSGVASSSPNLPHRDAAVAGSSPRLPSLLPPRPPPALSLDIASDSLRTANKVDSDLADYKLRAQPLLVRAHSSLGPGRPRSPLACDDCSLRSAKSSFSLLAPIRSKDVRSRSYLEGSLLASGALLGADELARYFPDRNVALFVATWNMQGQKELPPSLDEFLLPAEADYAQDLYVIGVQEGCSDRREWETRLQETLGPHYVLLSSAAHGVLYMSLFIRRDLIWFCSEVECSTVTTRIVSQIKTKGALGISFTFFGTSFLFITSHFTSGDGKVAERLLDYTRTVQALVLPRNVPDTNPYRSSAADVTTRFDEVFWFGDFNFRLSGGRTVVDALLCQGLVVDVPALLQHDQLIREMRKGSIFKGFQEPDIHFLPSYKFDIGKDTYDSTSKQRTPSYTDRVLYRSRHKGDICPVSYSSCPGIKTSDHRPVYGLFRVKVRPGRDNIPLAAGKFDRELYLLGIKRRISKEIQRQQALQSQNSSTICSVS
UniProt P17181: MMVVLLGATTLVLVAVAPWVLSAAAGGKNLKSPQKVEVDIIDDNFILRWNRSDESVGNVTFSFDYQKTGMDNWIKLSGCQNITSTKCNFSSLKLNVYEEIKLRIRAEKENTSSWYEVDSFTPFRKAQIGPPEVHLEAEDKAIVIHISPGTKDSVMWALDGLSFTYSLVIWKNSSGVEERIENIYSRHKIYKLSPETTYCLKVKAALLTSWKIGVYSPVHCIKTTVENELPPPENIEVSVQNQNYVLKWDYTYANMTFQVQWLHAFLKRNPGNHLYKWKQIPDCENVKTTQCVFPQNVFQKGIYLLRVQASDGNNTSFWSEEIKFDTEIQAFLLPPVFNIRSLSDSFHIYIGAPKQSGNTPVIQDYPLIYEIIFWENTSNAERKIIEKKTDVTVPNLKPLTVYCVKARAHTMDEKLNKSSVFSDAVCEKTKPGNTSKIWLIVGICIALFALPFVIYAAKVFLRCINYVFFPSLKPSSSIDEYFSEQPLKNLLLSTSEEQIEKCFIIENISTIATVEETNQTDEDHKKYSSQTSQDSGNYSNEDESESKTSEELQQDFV
UniProt P15516: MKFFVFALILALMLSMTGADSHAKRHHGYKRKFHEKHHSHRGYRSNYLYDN

The list shows a part of the results.

Compound in the first assay: CS(=O)(=O)N1CCN(Cc2cc3nc(-c4cccc5[nH]ncc45)nc(N4CCOCC4)c3s2)CC1 [pictilisib]
As to the kind of experiment: log2 fold change, soluble protein after heating vs DMSO (PISA); higher = thermal stabilisation; K562 lysate, 10 uM; active = over 0.2 and 3.5 SD of the protein, either way, in both replicates (recomputed). The method, boiled down:
(§1)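 K562 pellets were dounce-homogenised in PBS pH 7.4 containing 1 mM MgCl2, and the crude extract, at 1 mg/mL protein, was exposed to 10 μM compound for 30 min. Aliquots were heated for 3 min across 48°C-58°C, pooled, brought to 0.5% NP-40 at 4°C and spun at 21,000xg for 90 min, with the supernatant taken as soluble protein. TMTpro 16plex LC-MS/MS with equalised channel sums quantified that protein. Values are log-two fold changes in thermal stability relative to solvent controls, taken from duplicates.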
For HUWE1, A0A087X1S3, the log2 fold change was inactive: 0.081.

Turning to ICE1 (UniProt Q9Y2F5), the log2 fold change is inactive: -0.19.

Consider IGLC3 (UniProt P0DOY3), for which the log2 fold change is inactive: 0.35.

With HVCN1 (UniProt Q96D96), the log2 fold change is inactive: 0.018.

In the case of HYOU1, A0A494C039, the log2 fold change is inactive: 0.097.

For IFT81 (UniProt Q8WYA0), the log2 fold change was inactive: 0.054.

Turning to HSPH1 (UniProt Q5TBM3), the log2 fold change was inactive: 0.177.

For IDH3A isoform 2 (UniProt P50213), the log2 fold change was inactive: -0.003.

For the target IMPDH2 (UniProt H0Y4R1), the log2 fold change is inactive: -0.133.

In the case of ILF3 (UniProt Q12906), the log2 fold change is inactive: -0.012.

As for IL17RA (UniProt Q96F46), the log2 fold change was inactive: 0.032.

With IGHG3 (UniProt P01860), the log2 fold change is inactive: 0.324.

In the case of HTD2 (UniProt P86397), the log2 fold change was inactive: 0.004.

Turning to IFIH1 (UniProt Q9BYX4), the log2 fold change is inactive: -0.024.

On to ICAM4 (UniProt Q14773), for which the log2 fold change is inactive: 0.051.

Compound in the next assay: C[C@@H](Oc1cc(-c2cnn(C3CCNCC3)c2)cnc1N)c1c(Cl)ccc(F)c1Cl [crizotinib]
Described as above. The method, boiled down:
as §1
INPP5E (UniProt Q9NRR6): the log2 fold change is inactive: -0.085.

As for IFT46 isoform 2 (UniProt Q9NQC8), the log2 fold change is inactive: 0.045.

Regarding ICE1 (UniProt Q9Y2F5), the log2 fold change was inactive: 0.053.

With IMP4 (UniProt Q96G21), the log2 fold change is inactive: -0.099.

INO80 (UniProt Q9ULG1): the log2 fold change was inactive: -0.08.

On to INHBE (UniProt P58166), for which the log2 fold change was inactive: 0.021.

Take IFT81 (UniProt Q8WYA0): the log2 fold change is inactive: -0.076.

Consider IL13RA1 (UniProt P78552), for which the log2 fold change was inactive: 0.034.

As to IMPDH2 (UniProt H0Y4R1), the log2 fold change was inactive: 0.19.

Consider ILF3 (UniProt Q12906), for which the log2 fold change was inactive: 0.006.

Regarding IL10RB (UniProt Q08334), the log2 fold change is inactive: 0.041.

In the case of IL17RA (UniProt Q96F46), the log2 fold change was inactive: 0.144.

Consider HTD2 (UniProt P86397), for which the log2 fold change was inactive: 0.

Turning to IFNAR1 (UniProt P17181), the log2 fold change was inactive: -0.06.

For IDUA (UniProt P35475), the log2 fold change is inactive: -0.125.

Compound in another assay: C[C@H](C1=CC=C(C=C1)C(=O)NC2=C3C=CNC3=NC=C2)N
The assay is described as above. The method, boiled down: as §1
For HUWE1, A0A087X1S3, the log2 fold change was inactive: -0.03.

Take INPP5E (UniProt Q9NRR6): the log2 fold change was inactive: -0.033.

On to IFT46 isoform 2 (UniProt Q9NQC8), for which the log2 fold change is inactive: -0.099.

For ICE1 (UniProt Q9Y2F5), the log2 fold change is inactive: 0.032.

On to IGLC3 (UniProt P0DOY3), for which the log2 fold change is inactive: 0.31.

As for IMP4 (UniProt Q96G21), the log2 fold change was inactive: 0.061.

Turning to INO80 (UniProt Q9ULG1), the log2 fold change was inactive: -0.029.

In the case of INHBE (UniProt P58166), the log2 fold change is inactive: -0.004.

Turning to HVCN1 (UniProt Q96D96), the log2 fold change was inactive: -0.327.

Regarding HYOU1, A0A494C039, the log2 fold change is inactive: 0.145.

IFT81 (UniProt Q8WYA0): the log2 fold change was inactive: 0.282.

Consider HSPH1 (UniProt Q5TBM3), for which the log2 fold change was inactive: -0.101.

Take IL13RA1 (UniProt P78552): the log2 fold change is inactive: -0.01.

For IDH3A isoform 2 (UniProt P50213), the log2 fold change was inactive: -0.253.

Consider IGSF1 isoform 4 (UniProt Q8N6C5), for which the log2 fold change is inactive: -0.012.

As for HTRA3 (UniProt P83110), the log2 fold change was inactive: -1.14.

Regarding IMPDH2 (UniProt H0Y4R1), the log2 fold change was inactive: -0.056.

With ILF3 (UniProt Q12906), the log2 fold change is inactive: -0.092.

On to IGHA2 (UniProt P01877), for which the log2 fold change is inactive: 0.334.

Take IL17RA (UniProt Q96F46): the log2 fold change was inactive: -0.046.

Regarding IGHG3 (UniProt P01860), the log2 fold change is inactive: 0.167.

Take IGKV1D-33, A0A2Q2TTZ9: the log2 fold change is inactive: 0.275.

Turning to HTN3 (UniProt P15516), the log2 fold change is inactive: 0.002.

HTD2 (UniProt P86397): the log2 fold change was inactive: -0.042.

As to IGHV3-72, A0A4W8ZXM2, the log2 fold change is inactive: 0.109.

For IFIH1 (UniProt Q9BYX4), the log2 fold change is inactive: -0.005.

Regarding IL6ST (UniProt P40189), the log2 fold change is inactive: 0.397.

As to IGKV3-20 (UniProt P01619), the log2 fold change is inactive: 0.235.

As to IGKV3D-7, A0A0C4DH55, the log2 fold change is inactive: 0.234.

Turning to IFNAR1 (UniProt P17181), the log2 fold change is inactive: 0.027.

As for IDUA (UniProt P35475), the log2 fold change was inactive: 0.014.

For the target ICAM4 (UniProt Q14773), the log2 fold change was inactive: -0.077.

As to IGHM isoform 2 (UniProt P01871), the log2 fold change was inactive: 0.078.

Compound in another assay: C[C@H](Nc1ncnc2nc[nH]c12)c1cc2cccc(Cl)c2c(=O)n1-c1ccccc1 [duvelisib]
The assay is described as above. The method, boiled down:
as §1
Consider HUWE1, A0A087X1S3, for which the log2 fold change is inactive: 0.225.

Take ICE1 (UniProt Q9Y2F5): the log2 fold change is inactive: 0.135.

Consider IGLC3 (UniProt P0DOY3), for which the log2 fold change was inactive: 0.506.

HYOU1, A0A494C039: the log2 fold change was inactive: 0.023.

For the target IDH3A isoform 2 (UniProt P50213), the log2 fold change is inactive: -0.013.

With IMPDH2 (UniProt H0Y4R1), the log2 fold change was inactive: 0.011.

Turning to ILF3 (UniProt Q12906), the log2 fold change is inactive: 0.101.

Turning to IL10RB (UniProt Q08334), the log2 fold change is inactive: -0.058.

Take IL17RA (UniProt Q96F46): the log2 fold change is inactive: 0.002.

Consider IGKV3-20 (UniProt P01619), for which the log2 fold change was inactive: 0.209.

Turning to IFNAR1 (UniProt P17181), the log2 fold change is inactive: 0.093.

Take ICAM4 (UniProt Q14773): the log2 fold change is inactive: 0.04.

As for IGHM isoform 2 (UniProt P01871), the log2 fold change was inactive: 0.268.
